Binding data for one substance are collected here from paper PMC8500422.

Experiment [1] addresses T1, EGFP-fused BROMI(157–1,298) (human) (UniProt Q96NH3).
T1 sequence: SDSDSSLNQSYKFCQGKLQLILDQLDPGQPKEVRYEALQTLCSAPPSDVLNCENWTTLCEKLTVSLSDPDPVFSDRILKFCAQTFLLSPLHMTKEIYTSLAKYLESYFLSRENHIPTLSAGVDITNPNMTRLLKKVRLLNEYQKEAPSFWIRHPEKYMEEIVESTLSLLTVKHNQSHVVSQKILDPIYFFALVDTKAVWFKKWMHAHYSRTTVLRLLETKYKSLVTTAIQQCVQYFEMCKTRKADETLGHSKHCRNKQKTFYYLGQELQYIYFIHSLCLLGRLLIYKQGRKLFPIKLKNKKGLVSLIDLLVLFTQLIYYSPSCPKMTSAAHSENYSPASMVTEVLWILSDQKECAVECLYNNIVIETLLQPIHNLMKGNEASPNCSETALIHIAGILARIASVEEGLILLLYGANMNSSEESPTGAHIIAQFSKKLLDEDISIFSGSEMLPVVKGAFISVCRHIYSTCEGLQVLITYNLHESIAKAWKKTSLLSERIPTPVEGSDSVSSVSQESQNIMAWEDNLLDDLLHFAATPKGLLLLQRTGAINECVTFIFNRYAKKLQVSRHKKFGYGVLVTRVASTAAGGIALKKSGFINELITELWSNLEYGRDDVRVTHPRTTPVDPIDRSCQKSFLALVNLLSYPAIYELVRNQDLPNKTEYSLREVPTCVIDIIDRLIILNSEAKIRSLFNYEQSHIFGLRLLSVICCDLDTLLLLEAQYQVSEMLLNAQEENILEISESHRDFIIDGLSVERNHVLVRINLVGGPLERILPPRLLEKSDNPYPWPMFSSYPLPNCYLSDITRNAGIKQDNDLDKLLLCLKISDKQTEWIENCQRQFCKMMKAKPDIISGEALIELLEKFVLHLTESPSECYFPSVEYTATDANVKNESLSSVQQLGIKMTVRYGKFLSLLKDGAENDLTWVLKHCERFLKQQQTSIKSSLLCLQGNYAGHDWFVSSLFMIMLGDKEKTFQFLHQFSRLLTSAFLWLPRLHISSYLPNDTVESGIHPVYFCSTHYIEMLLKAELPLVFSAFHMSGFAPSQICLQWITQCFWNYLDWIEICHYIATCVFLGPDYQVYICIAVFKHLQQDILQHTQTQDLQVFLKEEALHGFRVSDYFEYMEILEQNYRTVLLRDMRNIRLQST
Nature of the experiment: co-IP; visible immunoprecipitation (VIP) assay: lysates of HEK293T cells coexpressing EGFP-fused and mChe-fused proteins (HMDEKN buffer: 10 mM HEPES pH 7.4, 5 mM MgSO4, 1 mM DTT, 0.5 mM EDTA, 25 mM KCl, 0.05% NP-40), precipitated with GST-tagged anti-GFP Nb on glutathione–Sepharose 4B beads, 1 h at 4°C; red fluorescence on the washed beads observed under a microscope.

The target of experiment [2] is T2, EGFP-fused BROMI(1–1,101) (human) (UniProt Q96NH3).
T2 sequence: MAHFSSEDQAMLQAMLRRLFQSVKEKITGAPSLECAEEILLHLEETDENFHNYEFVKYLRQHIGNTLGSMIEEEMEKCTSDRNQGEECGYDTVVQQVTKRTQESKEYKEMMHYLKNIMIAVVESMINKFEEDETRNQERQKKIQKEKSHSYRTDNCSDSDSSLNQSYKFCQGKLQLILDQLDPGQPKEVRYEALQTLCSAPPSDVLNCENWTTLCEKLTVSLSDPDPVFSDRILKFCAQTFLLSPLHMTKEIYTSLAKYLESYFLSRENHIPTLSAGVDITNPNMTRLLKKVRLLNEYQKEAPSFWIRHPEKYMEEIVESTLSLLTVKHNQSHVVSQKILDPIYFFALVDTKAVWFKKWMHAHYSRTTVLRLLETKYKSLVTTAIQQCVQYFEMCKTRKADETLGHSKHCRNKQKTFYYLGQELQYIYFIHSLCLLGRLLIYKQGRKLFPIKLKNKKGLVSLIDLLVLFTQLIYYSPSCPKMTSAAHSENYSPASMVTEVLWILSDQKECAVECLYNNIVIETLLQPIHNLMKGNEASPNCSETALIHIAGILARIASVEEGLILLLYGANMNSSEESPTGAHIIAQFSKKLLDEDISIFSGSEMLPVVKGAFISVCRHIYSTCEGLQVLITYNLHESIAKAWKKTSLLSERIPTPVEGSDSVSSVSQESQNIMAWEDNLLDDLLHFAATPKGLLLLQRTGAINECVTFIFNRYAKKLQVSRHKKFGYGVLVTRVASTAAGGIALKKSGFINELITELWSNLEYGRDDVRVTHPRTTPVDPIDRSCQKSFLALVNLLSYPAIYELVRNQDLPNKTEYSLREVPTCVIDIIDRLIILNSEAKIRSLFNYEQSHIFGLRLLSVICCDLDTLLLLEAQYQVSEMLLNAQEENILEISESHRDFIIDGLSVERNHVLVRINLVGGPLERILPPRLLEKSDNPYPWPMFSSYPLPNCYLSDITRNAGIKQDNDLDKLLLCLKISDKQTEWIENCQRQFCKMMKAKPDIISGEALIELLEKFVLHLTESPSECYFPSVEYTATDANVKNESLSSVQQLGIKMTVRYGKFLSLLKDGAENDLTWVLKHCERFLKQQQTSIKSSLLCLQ
The experiment is described as above.

No constants are given. Whether binding was seen depends on the method and setting. Binding seen in cells or lysates may run through a third protein. Some entries that bind do so weakly or less than the wild type. Tags and fused reporters may be left off the sequences shown.

As for CCRK-mChe (from UniProt Q8IZL9-1 1-346), the binding result is “binds” in experiment [1] and “no binding” in experiment [2].
